Results from the supplement of paper PMC6411743.
± gives the standard deviation of the averaged measurements. Only a part is listed here, and it is no random draw. Small differences around the control level are noise.

The chains behind the UniProt entries cited, without tags or fusion partners. Where a name states a change or a piece, a line headed by the entry shows the natural chain unless it says otherwise.
UniProt O43143: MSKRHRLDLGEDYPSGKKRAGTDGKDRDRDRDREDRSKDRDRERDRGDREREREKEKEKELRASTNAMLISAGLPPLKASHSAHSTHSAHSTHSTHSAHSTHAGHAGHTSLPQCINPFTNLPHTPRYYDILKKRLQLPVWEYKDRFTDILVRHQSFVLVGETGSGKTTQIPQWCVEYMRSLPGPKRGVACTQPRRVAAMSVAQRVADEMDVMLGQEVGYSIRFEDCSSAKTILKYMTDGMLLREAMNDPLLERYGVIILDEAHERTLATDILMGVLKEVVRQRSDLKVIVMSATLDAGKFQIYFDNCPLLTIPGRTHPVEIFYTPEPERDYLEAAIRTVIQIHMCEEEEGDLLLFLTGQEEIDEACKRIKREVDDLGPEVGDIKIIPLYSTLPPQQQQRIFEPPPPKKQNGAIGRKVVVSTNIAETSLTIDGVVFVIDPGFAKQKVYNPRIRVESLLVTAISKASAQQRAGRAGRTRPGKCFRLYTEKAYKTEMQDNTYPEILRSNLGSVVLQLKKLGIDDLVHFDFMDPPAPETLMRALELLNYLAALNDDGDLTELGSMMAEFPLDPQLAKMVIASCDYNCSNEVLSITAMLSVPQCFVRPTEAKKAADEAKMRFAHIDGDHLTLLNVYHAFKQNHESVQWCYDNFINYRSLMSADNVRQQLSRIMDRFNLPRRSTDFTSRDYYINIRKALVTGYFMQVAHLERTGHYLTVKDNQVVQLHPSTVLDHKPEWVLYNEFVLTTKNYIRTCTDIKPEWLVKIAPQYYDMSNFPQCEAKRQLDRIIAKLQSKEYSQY
UniProt O43809, whole entry: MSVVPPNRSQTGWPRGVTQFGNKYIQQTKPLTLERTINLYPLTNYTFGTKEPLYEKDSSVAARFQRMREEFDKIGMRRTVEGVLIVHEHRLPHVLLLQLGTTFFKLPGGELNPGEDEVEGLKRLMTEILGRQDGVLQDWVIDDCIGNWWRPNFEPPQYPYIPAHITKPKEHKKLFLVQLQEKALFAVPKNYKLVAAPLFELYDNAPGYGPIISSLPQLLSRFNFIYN
UniProt O14841: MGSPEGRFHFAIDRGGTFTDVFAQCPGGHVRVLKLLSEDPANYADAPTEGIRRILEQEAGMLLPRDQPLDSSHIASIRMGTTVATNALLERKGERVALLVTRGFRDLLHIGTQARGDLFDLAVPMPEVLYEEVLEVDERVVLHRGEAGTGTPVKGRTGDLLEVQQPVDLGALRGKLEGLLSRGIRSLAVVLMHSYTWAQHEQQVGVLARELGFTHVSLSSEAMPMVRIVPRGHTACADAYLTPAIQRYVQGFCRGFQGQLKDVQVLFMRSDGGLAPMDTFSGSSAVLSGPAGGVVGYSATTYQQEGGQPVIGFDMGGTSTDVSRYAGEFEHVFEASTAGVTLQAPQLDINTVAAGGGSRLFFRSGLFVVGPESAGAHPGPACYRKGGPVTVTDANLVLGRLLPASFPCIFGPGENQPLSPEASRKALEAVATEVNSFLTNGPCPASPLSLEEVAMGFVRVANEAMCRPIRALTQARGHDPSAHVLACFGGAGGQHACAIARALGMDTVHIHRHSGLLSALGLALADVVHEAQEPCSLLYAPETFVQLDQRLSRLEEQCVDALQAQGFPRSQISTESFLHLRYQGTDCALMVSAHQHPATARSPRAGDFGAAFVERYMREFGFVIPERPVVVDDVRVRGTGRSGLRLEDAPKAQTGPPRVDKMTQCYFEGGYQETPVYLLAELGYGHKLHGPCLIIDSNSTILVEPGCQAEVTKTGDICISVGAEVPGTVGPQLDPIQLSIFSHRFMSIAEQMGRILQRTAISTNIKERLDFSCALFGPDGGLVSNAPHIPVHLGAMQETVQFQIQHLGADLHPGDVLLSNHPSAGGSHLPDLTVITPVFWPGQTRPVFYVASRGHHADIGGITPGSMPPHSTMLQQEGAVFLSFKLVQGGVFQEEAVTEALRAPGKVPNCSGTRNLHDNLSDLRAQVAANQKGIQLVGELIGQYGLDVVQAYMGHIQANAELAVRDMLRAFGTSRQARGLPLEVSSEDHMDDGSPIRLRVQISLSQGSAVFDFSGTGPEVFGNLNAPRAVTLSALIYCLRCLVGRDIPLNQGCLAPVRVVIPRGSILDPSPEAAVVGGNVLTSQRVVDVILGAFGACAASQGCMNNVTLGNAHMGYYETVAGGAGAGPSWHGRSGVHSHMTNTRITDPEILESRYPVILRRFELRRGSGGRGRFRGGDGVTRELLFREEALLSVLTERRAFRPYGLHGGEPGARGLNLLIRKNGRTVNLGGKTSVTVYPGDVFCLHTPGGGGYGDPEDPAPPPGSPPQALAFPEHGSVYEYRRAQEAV
UniProt O00764: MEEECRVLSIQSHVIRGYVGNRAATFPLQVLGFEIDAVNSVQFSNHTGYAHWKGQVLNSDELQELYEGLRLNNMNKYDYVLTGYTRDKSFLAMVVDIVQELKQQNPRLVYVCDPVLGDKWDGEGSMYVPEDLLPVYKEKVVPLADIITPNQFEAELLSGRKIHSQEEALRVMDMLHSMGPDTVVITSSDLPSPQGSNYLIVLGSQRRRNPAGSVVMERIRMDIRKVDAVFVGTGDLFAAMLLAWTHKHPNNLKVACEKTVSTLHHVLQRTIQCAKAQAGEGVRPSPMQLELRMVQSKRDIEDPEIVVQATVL
UniProt O00560: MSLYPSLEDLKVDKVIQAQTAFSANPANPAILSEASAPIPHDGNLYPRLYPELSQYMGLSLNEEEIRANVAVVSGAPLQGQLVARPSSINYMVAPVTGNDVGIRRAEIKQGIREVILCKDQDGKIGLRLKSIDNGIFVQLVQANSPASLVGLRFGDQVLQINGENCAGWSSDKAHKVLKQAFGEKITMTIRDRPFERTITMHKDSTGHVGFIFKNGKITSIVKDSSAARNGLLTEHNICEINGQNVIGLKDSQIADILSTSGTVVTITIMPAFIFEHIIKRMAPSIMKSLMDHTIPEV
UniProt O00161: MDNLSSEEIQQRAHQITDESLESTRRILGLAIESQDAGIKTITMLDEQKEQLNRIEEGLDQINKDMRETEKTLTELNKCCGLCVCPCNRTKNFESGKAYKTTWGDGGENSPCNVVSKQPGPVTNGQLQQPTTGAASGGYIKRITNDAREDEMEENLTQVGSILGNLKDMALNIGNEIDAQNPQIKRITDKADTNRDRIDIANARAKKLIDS
UniProt P04350, whole entry: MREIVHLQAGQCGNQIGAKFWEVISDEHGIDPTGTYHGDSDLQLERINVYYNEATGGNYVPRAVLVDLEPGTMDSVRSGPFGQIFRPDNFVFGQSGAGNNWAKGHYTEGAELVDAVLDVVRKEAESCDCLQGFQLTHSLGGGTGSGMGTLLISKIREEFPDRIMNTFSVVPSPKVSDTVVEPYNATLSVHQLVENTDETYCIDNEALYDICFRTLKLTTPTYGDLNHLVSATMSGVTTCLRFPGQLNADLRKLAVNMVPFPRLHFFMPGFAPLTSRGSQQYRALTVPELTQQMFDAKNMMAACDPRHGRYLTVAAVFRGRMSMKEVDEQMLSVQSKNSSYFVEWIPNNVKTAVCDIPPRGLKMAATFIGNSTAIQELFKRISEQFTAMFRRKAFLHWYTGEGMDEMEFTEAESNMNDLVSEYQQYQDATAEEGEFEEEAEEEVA

Compound: Nc1ncnc2c1ncn2[C@@H]1O[C@H](COP(=O)(O)OP(=O)(O)OP(=O)(O)O)[C@@H](O)[C@H]1O [adenosine triphosphate]
Test: NP40-soluble protein abundance relative to vehicle (solubility fold change) (ratio); higher = more soluble protein in presence of ATP
Procedure, shortened: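 Each value is a fold change relative to the detergent-processed vehicle, calculated per replicate from vsn-normalised intensities. Jurkat crude lysate received eight concentrations (0.1 to 10 mM) for 10 min at room temperature and 3 min at 37 °C, then was solubilised in 0.8% NP40 with benzonase (60 min, 4 °C). The ultracentrifuged supernatant was TMT-labelled and run by LC-MS/MS in three independent experiments.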

| Target | NP40-soluble protein abundance (concentration: 0.1mM) | NP40-soluble protein abundance (concentration: 0.5mM) | NP40-soluble protein abundance (concentration: 1mM) | NP40-soluble protein abundance (concentration: 2mM) | NP40-soluble protein abundance (concentration: 4mM) | NP40-soluble protein abundance (concentration: 6mM) | NP40-soluble protein abundance (concentration: 8mM) | NP40-soluble protein abundance (concentration: 10mM) |
| --- | --- | --- | --- | --- | --- | --- | --- | --- |
| DHX15 (UniProt O43143) | 1.09 ± 0.047 | 1.25 ± 0.052 | 1.25 ± 0.079 | 1.24 ± 0.071 | 1.24 ± 0.079 | 1.24 ± 0.1 | 1.33 ± 0.074 | 1.29 ± 0.044 |
| NUDT21 (UniProt O43809) | 1.06 ± 0.025 | 1.55 ± 0.033 | 1.95 ± 0.11 | 2.06 ± 0.064 | 2.18 ± 0.1 | 2.25 ± 0.052 | 2.31 ± 0.1 | 2.213 ± 0.019 |
| OPLAH (UniProt O14841) | 1.06 ± 0.027 | 1.07 ± 0.052 | – | – | – | – | – | – |
| PDXK (UniProt O00764) | 1.05 ± 0.061 | 1.02 ± 0.063 | 1.02 ± 0.12 | 0.987 ± 0.058 | 1.01 ± 0.066 | 0.935 ± 0.14 | 0.989 ± 0.058 | 0.981 ± 0.051 |
| UniProt O00560 and related entries | 0.989 ± 0.03 | 0.978 ± 0.022 | 0.95 ± 0.073 | 0.946 ± 0.041 | 0.937 ± 0.04 | 0.896 ± 0.077 | 0.9459 ± 0.0062 | 0.957 ± 0.031 |
| SNAP23 (UniProt O00161) | 0.92 ± 0.058 | 0.911 ± 0.068 | 0.944 ± 0.077 | 0.947 ± 0.024 | 0.943 ± 0.021 | 1 ± 0.061 | 0.921 ± 0.02 | 0.883 ± 0.03 |
| M0R042 and related entries (UniProt P04350) | 1.01 ± 0.024 | 1.01 ± 0.036 | 1.01 ± 0.089 | 0.962 ± 0.037 | 1.02 ± 0.034 | 0.934 ± 0.058 | 1.02 ± 0.018 | 0.955 ± 0.071 |
